PMC5716718

Target: AMP-activated protein kinase alpha (AMPKα) (human (endogenous in DU145 and PC-3))
Assay: co-IP; purified ectopic expression PDLIM5 incubated at 4°C for 2 h with DU145 and PC-3 cell lysate (30 mM MOPS pH 7.5, 150 mM NaCl, 0.5% Triton-X100, 1.5 mM MgCl2, 1 mM EGTA, 1 mM DTT); precipitated with AMPKα antibody and Protein A agarose, IgG as control; Western blot for PDLIM5 and AMPKα; only the binder purified

binding: binds
B1: PDZ and LIM domain 5 (PDLIM5) (protein, UniProt Q96HC4-1 1-596)
chain: MSNYSVSLVGPAPWGFRLQGGKDFNMPLTISSLKDGGKAAQANVRIGDVVLSIDGINAQGMTHLEAQNKIKGCTGSLNMTLQRASAAPKPEPVPVQKGEPKEVVKPVPITSPAVSKVTSTNNMAYNKAPRPFGSVSSPKVTSIPSPSSAFTPAHATTSSHASPSPVAAVTPPLFAASGLHANANLSADQSPSALSAGKTAVNVPRQPTVTSVCSETSQELAEGQRRGSQGDSKQQNGPPRKHIVERYTEFYHVPTHSDASKKRLIEDTEDWRPRTGTTQSRSFRILAQITGTEHLKESEADNTKKANNSQEPSPQLASSVASTRSMPESLDSPTSGRPGVTSLTAAAAFKPVGSTGVIKSPSWQRPNQGVPSTGRISNSATYSGSVAPANSALGQTQPSDQDTLVQRAEHIPAGKRTPMCAHCNQVIRGPFLVALGKSWHPEEFNCAHCKNTMAYIGFVEEKGALYCELCYEKFFAPECGRCQRKILGEVISALKQTWHVSCFVCVACGKPIRNNVFHLEDGEPYCETDYYALFGTICHGCEFPIEAGDMFLEALGYTWHDTCFVCSVCCESLEGQTFFSKKDKPLCKKHAHSVNF

No constants are given. Whether binding was seen depends on the method and setting. Binding seen in cells or lysates may run through a third protein. Binding can be weak; no strength is given.
